# Experimental data published in the supplement of paper PMC8326762, “A Small Molecule Inhibitor of Pex3–Pex19 Interaction Disrupts Glycosome Biogenesis and Causes Lethality in Trypanosoma brucei” (Frontiers in Cell and Developmental Biology, 2021).
# Counter-ions that a name gives are not always drawn. This is one part of the list. This is a noisy data set.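 Yeast growth was read as optical density at 600 nm. The two-hybrid strains grew without histidine, so growth needed the Pex3–Pex19 binding; a compound counted as trypanosome-selective if it cut growth of the trypanosome-pair strain by more than 65% and the human-pair strain by less than 65%.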
# How the values were obtained:
# [1] = system: Saccharomyces cerevisiae HF7c pdr5Δ; assay: general growth inhibition of yeast HF7c pdr5Δ in -Leu -Trp medium, relative to DMSO; higher = stronger general growth inhibition; conditions: 100 µM; 24 h
# [2] = system: human PEX3-PEX19 interaction (yeast two-hybrid); assay: growth inhibition of yeast two-hybrid strain reporting HsPex3-HsPex19 interaction, relative to DMSO; higher = stronger inhibition of human Pex3-Pex19 interaction / growth; conditions: 100 µM; 24 h; 3-aminotriazole 10 mM
# [3] = system: T. brucei Pex3-Pex19 interaction (yeast two-hybrid); assay: growth inhibition of yeast two-hybrid strain reporting TbPex3-TbPex19 interaction, relative to DMSO; higher = stronger inhibition of T. brucei Pex3-Pex19 interaction / growth; conditions: 100 µM; 24 h
Compound,general growth inhibition [1] [%],growth inhibition [2] [%],growth inhibition [3] [%]
CC(C)[N+]1(C)[C@@H]2CC[C@H]1C[C@@H](OC(=O)C(CO)c1ccccc1)C2 (some centres not stated) [Ipratropium bromide],38.2,41.3,63.1
O=C1c2c(O)cc(O)cc2O[C@H](c2ccc(O)c(O)c2)[C@H]1O (racemic) [(±)-Taxifolin],11.8,11.8,43.1
"O=c1cc(-c2ccccc2)[nH]c2nc(Cl)ccc12 [7-Chloro-4-hydroxy-2-phenyl-1,8-naphthyridine]",29.5,32,44
COc1ccc(CCN(C)CCCC(C#N)(c2cc(OC)c(OC)c(OC)c2)C(C)C)cc1OC (racemic) [(±)-Methoxyverapamil hydrochloride],42.5,52.1,63.8
COC(=O)C1=C(C)NC(C)=C([N+](=O)[O-])C1c1ccccc1C(F)(F)F (racemic),65.4,47.7,56.3
CC(C)(C)NC[C@H](O)COc1nsnc1N1CCOCC1 [S(-)-Timolol maleate],57.3,47.7,65.6
"Cn1c(=O)[nH]c2ncn(C)c2c1=O [1,7-Dimethylxanthine]",36.6,48.4,68.9
CC(N)(Cc1ccc(O)cc1)C(=O)O (racemic) [DL-alpha-Methyl-p-tyrosine],11.2,13.3,28
CCOC(=O)C1=C(C)NC(C)=C(C(=O)OC)C1c1cccc(Cl)c1Cl (configuration not stated) [Felodipine],71.7,65.7,66.6
OC(CCN1CCCCC1)(c1ccccc1)C1CC2C=CC1C2 (configuration not stated) [Biperiden hydrochloride],25,19.7,24.1
CC(C)NCC(O)COc1ccc(CCOCC2CC2)cc1 (configuration not stated) [Betaxolol hydrochloride],43.4,47.9,63.6
"Cn1c(=O)c2[nH]c(C3CCCC3)nc2n(C)c1=O [8-Cyclopentyl-1,3-dimethylxanthine]",21.1,27.1,54.5
COc1ccc(CCN(C)CCc2ccc(OC)c(OC)c2)cc1OC [YS-035 hydrochloride],50.2,52.1,63.1
c1cc(CN2CCCCC2)cc(OCCCNc2nc3ccccc3s2)c1,46.8,44.9,61.4
O=c1c2ccccc2nc2n1CCc1c-2[nH]c2ccccc12 [Rutaecarpine],36.6,20.7,28.6
COc1ccc2[nH]c([S@@+]([O-])Cc3ncc(C)c(OC)c3C)nc2c1 [Esomeprazole magnesium dihydrate],82.8,77.8,78.8
Nc1ncnc2c1ncn2[C@@H]1O[C@H](CO)[C@@H](O)[C@H]1O [Adenosine],49.5,40.9,57.5
CNC(=O)[C@H]1O[C@@H](n2cnc3c(NCc4ccc(N)cc4)ncnc32)[C@H](O)[C@@H]1O,45.2,39.8,57
CC(C)NCC(O)COc1cccc2ccccc12 (racemic) [(±)-Propranolol hydrochloride],50.2,46.6,71.3
O=C(N[C@@H](Cc1ccccc1)C(=O)CCl)OCc1ccccc1 [Z-L-Phe chloromethyl ketone],71.8,61.7,60.1
C[N+](C)(C)CCOC(=O)CCC(=O)OCC[N+](C)(C)C [Succinylcholine chloride],53,51.3,63.6
O=c1c(-c2ccc(O)cc2)coc2cc(O)cc(O)c12 [Genistein],26.1,26.8,27.5
"CN(C)CCC(c1ccc(Br)cc1)c1ccccn1 (single isomer, unassigned; (+)) [(+)-Brompheniramine maleate]",9.09,4.92,26.3
Oc1ccc(O)cc1 [Hydroquinone],42,37.7,62.6
O=C1NCN(c2ccccc2)C12CCN(CCCC(c1ccc(F)cc1)c1ccc(F)cc1)CC2 [Fluspirilene],27.7,33.4,52.2
CCOC(=O)[C@@H](N)Cc1ccc(O)c(O)c1 [L-Dopa ethyl ester],30.4,45.3,61.2
O=C(O)c1cc([N+](=O)[O-])ccc1NCCCc1ccccc1 [5-Nitro-2-(3-phenylpropylamino)benzoic acid],45.9,34.4,47.6
Nc1ccc(S(=O)(=O)Nc2ccnn2-c2ccccc2)cc1 [Sulfaphenazole],43.4,38.7,66.6
C=CC(N)CCC(=O)O (racemic) [(±)-gamma-Vinyl GABA],14,11.1,43.8

# Exported tab-delimited: entries from further up
Compound	general growth inhibition [1] [%]	growth inhibition [2] [%]	growth inhibition [3] [%]
Cn1c(=O)[nH]c2ncn(C)c2c1=O [1,7-Dimethylxanthine]	36.6	48.4	68.9
CC(N)(Cc1ccc(O)cc1)C(=O)O (racemic) [DL-alpha-Methyl-p-tyrosine]	11.2	13.3	28
